Measured values from patent US20230303491A1, “DONEPEZIL ETHER PALMITATE OR PHARMACEUTICALLY ACCEPTABLE SALT THEREOF” (CHONG KUN DANG PHARMACEUTICAL CORP., priority 2020, published 2023).

Test: Pharmacokinetic evaluation: donepezil concentration in plasma after intramuscular injection of solution phase compositions
Details: SD rats
Procedure: The main ingredients of Table 1 above, castor oil, and benzyl benzoate were mixed according to the components and amounts of Table 2 below, and stirred at room temperature for 0.5 to 3 hours to prepare solution phase compositions.
Four male SD rats with an average weight of 300 g were intramuscularly injected with a dose of 4 mg/kg of donepezil in the formulation of donepezil (D) and 40 mg/kg of donepezil each in the DEP, DEM, DEPD, DEHD, and DES formulations, and the concentrations of donepezil in plasma samples of SD rats were analyzed using LC-MS/MS.

## COc1cc2c(cc1OC)C(=O)C(CC1CCN(Cc3ccccc3)CC1)C2 (centres unmarked) [D, 2-((1-benzylpiperidin-4-yl)methyl)-5,6-dimethoxy-2,3-dihydro-1H-inden-1-one, reference compound]
4 mg/kg donepezil
  time until release of the drug was terminated: ≤ 3 days
D 4 mg/kg, DEP 40 mg/kg as donepezil
  release of drug immediately after administration: rapidly released immediately after administration
